Test results reported in PubChem BioAssay AID330 (DTP/NCI, 2004).
The list shows only some results of the screen, not a fair sample: it gathers tests that were run many times, whatever their T/C, doses with no T/C, and many T/C values between a quarter and a half above the control. Other doses and runs of a compound stand elsewhere. T/C: endpoint of the treated group in % of that of the vehicle group. Some entries give survivors of the animals treated and no T/C: the source holds a T/C of zero for them, seemingly a mark for toxic or unscored doses. Some doses without a T/C left all or most animals alive at the check, yet need not have been tolerated: the source hardly ever lists a survival T/C far under the control, and the zero likely stands for such cases as well. Survivors were counted at the toxicity check, usually on the fifth day, unless a day is given; later deaths do not show. Schedules are NCI's codes, taken here to give the interval after Q, in days (D) or hours (H), and the number of doses after X. Some molecules as drawn cover several salts, stereoisomers or complexes of the source; a dose is that of the sample tested. Some entries hold several experiments; the results are listed from low to high. For survival time, the PubChem record calls one and a half times the control and up active, and a quarter to a half above the control has no call in these data; cut-offs in other NCI protocols can differ.

System: P388 leukemia ip, CD2F1 mice, survival T/C
Assay: NCI In Vivo Anticancer Drug Screen. Data for tumor model P388 Leukemia (intraperitoneal) in CD2F1 (CDF1) mice
Settings: T/C endpoint: median survival time, higher T/C = longer survival
[1] = dose: 50.0 mg/kg/injection, schedule: Q01DX009 (ip), vehicle: saline with Tween-80
[2] = dose: 100.0 mg/kg/injection, schedule: Q01DX009 (ip), vehicle: saline with Tween-80
[3] = dose: 200.0 mg/kg/injection, schedule: Q01DX009 (ip), vehicle: saline with Tween-80
[4] = dose: 100.0 mg/kg/injection, schedule: Q04DX003 (ip), vehicle: Klucel (hydroxypropylcellulose) (HPC)
[5] = dose: 200.0 mg/kg/injection, schedule: Q04DX003 (ip), vehicle: Klucel (hydroxypropylcellulose) (HPC)
[6] = dose: 400.0 mg/kg/injection, schedule: Q04DX003 (ip), vehicle: Klucel (hydroxypropylcellulose) (HPC)
[7] = dose: 12.5 mg/kg/injection, schedule: Q01DX009 (ip), vehicle: saline with Tween-80
[8] = dose: 25.0 mg/kg/injection, schedule: Q01DX009 (ip), vehicle: saline with Tween-80
[9] = dose: 200.0 mg/kg/injection, schedule: Q01DX005 (ip), vehicle: saline
[10] = dose: 120.0 mg/kg/injection, schedule: Q01DX005 (ip), vehicle: saline with Tween-80
[11] = dose: 240.0 mg/kg/injection, schedule: Q01DX005 (ip), vehicle: saline with Tween-80
[12] = dose: 100.0 mg/kg/injection, schedule: Q01DX009 (ip), vehicle: Klucel (hydroxypropylcellulose) (HPC)
[13] = dose: 200.0 mg/kg/injection, schedule: Q01DX009 (ip), vehicle: Klucel (hydroxypropylcellulose) (HPC)
[14] = dose: 200.0 mg/kg/injection, schedule: Q01DX009 (ip), vehicle: saline

For `CCC(=O)Nc1ccc(N=NN(C)C)cc1`, the survivor count (dose: 50.0 mg/kg/injection, schedule: Q04DX002 (ip), vehicle: Klucel (hydroxypropylcellulose) (HPC)) was 0 of 6, the survivor count (dose: 100.0 mg/kg/injection, schedule: Q04DX002 (ip), vehicle: Klucel (hydroxypropylcellulose) (HPC)) was 0 of 6 and 1 of 6 and the survivor count (dose: 200.0 mg/kg/injection, schedule: Q04DX002 (ip), vehicle: Klucel (hydroxypropylcellulose) (HPC)) was 0 of 6. The survivor count (dose: 400.0 mg/kg/injection, schedule: Q04DX002 (ip), vehicle: Klucel (hydroxypropylcellulose) (HPC)) was 0 of 6.

For `O=C(N=Nc1c(Cl)c(O)c2ccccc2c1O)C(F)(F)F`, the survivor count [1] was 3 of 6, the survivor count [2] was 0 of 6 and the survivor count [3] was 0 of 6.

In the case of `Cc1cc(C(C(N)=O)c2ccccc2)ccc1N(CCCl)CCCl` (stereo unspecified), the T/C (dose: 25.0 mg/kg/injection, schedule: Q04DX003 (ip), vehicle: Klucel (hydroxypropylcellulose) (HPC)) is reported as 148 % of control, the survivor count (dose: 37.5 mg/kg/injection, schedule: Q01DX009 (ip), vehicle: other) is reported as 6 of 6 and the T/C (dose: 50.0 mg/kg/injection, schedule: Q04DX003 (ip), vehicle: Klucel (hydroxypropylcellulose) (HPC)) is reported as 146 % of control. The T/C [4] was 146 % of control, the survivor count [4] was 6 of 6 and the survivor count [5] was 1 of 6. For the same compound, the survivor count [6] was 1 of 6.

With `c1ccc(C2=NNC(c3ccccc3)=NN2)cc1` the survivor count (dose: 3.12 mg/kg/injection, schedule: Q01DX009 (ip), vehicle: saline with Tween-80) was 6 of 6, the survivor count (dose: 6.25 mg/kg/injection, schedule: Q01DX009 (ip), vehicle: saline with Tween-80) was 6 of 6 and the survivor count [7] was 6 of 6.

For `CCCOC1=C(N2CC2)C(=O)C(OCCC)=C(N2CC2)C1=O`, the T/C (dose: 1.33 mg/kg/injection, schedule: Q01DX009 (ip), vehicle: saline with Tween-80) was 126 % of control, the T/C (dose: 2.0 mg/kg/injection, schedule: Q01DX009 (ip), vehicle: saline with Tween-80) was 135 % of control and the T/C (dose: 2.66 mg/kg/injection, schedule: Q01DX009 (ip), vehicle: saline with Tween-80) was 145 % of control. The T/C [7] was 136 % of control and the survivor count [8] was 3 of 6.

For `COc1ccc(CCN2C(=O)CC(CC3=NCCc4cc(OC)c(OC)cc43)CC2=O)cc1OC`, the survivor count [9] was 0 of 6.

With `O=[N+]([O-])C1(Br)COC(c2cccc(O)c2)OC1` (stereo unspecified) the survivor count [8] was 3 of 6, the survivor count [1] was 1 of 6 and 2 of 6 and the survivor count [2] was 0 of 6. For the same compound, the survivor count [3] was 0 of 6.

With `C[N+]1(Cc2ccccc2)CCCC(O)C1` (stereo unspecified) the survivor count (dose: 60.0 mg/kg/injection, schedule: Q01DX005 (ip), vehicle: saline with Tween-80) was 0 of 6, the survivor count [10] was 0 of 6 and the survivor count [11] was 0 of 6.

In the case of `C#CCNCCCn1c(=O)nc2n(-c3ccccc3)c3ccccc3nc-2c1=O`, the survivor count [5] is reported as 6 of 6 and the survivor count [6] is reported as 0 of 6.

In the case of `CCOC(=O)Nc1cc(Cl)c2nnn(C(=O)OCC)c2n1`, the T/C (dose: 25.0 mg/kg/injection, schedule: Q01DX009 (ip), vehicle: other) is reported as 127 % of control.

With `CCOc1ccc(NC(=O)C(=O)NNC(=S)NC)cc1` the survivor count [2] was 6 of 6 and the survivor count [3] was 4 of 6.

With `CNc1nc(NC)nc(N(C)C=O)n1` the survivor count [2] was 5 of 6.

`CSCCC(NC(=O)C(Cc1c[nH]c2ccccc12)NC(=O)OC(C)(C)C)C(=O)NN` (stereo unspecified) was tested, and the T/C [12] was 127 % of control and the T/C [13] was 127 % of control.

With `CN(C)CCOC1=Nc2ccccc2O/C1=C/c1ccccc1` the survivor count [13] was 0 of 6.

For `S=c1cc(-c2ccccc2)c(-c2ccccc2)c(-c2ccccc2)s1`, the survivor count (dose: 400.0 mg/kg/injection, schedule: Q01DX001 (ip), vehicle: saline with Tween-80) was 6 of 6.

In the case of `CCN(CC)OC(=O)/C=C/c1ccccc1`, the survivor count [10] is reported as 6 of 6 and the survivor count [11] is reported as 5 of 6.

`O=C(CCl)NCc1ccccc1` was tested, and the survivor count (dose: 400.0 mg/kg/injection, schedule: Q04DX003 (ip), vehicle: saline) was 4 of 6.

`COc1ccccc1CNCCCCCCNCCSSCCNCCCCCCNCc1ccccc1OC` was tested, and the survivor count (dose: 50.0 mg/kg/injection, schedule: Q04DX002 (ip), vehicle: suspension in saline) was 4 of 6, the survivor count (dose: 100.0 mg/kg/injection, schedule: Q04DX002 (ip), vehicle: saline) was 0 of 6 and the survivor count (dose: 200.0 mg/kg/injection, schedule: Q04DX002 (ip), vehicle: saline) was 0 of 6. For the same compound, the survivor count (dose: 400.0 mg/kg/injection, schedule: Q04DX002 (ip), vehicle: saline) was 0 of 6.

In the case of `Clc1ccc(C(c2ccc(Cl)cc2)C(Cl)(Cl)Cl)cc1`, the survivor count [2] is reported as 6 of 6 and the survivor count [3] is reported as 6 of 6.

For `CC(=O)Oc1ccc(OC(C)=O)c2c1C(=O)C=CC2=O`, the survivor count (dose: 50.0 mg/kg/injection, schedule: Q01DX009 (ip), vehicle: saline) was 1 of 6, the survivor count (dose: 100.0 mg/kg/injection, schedule: Q01DX009 (ip), vehicle: saline) was 0 of 6 and the survivor count [14] was 0 of 6.

`CCN(CC)CCOCCOC1(C)CCC(C(C)C)CC1` (stereo unspecified) was tested, and the survivor count (dose: 200.0 mg/kg/injection, schedule: Q01DX005 (ip), vehicle: suspension in saline) was 0 of 6.

`CC1(C)CC[P+](CC[P+]2(c3ccccc3)CCC(C)(C)c3ccccc32)(c2ccccc2)c2ccccc21` (stereo unspecified) was tested, and the survivor count (dose: 6.25 mg/kg/injection, schedule: Q01DX005 (ip), vehicle: suspension in saline) was 4 of 5, the survivor count (dose: 12.5 mg/kg/injection, schedule: Q01DX005 (ip), vehicle: suspension in saline) was 0 of 5 and the survivor count (dose: 50.0 mg/kg/injection, schedule: Q01DX005 (ip), vehicle: saline with Tween-80) was 5 of 5. For the same compound, the survivor count (dose: 50.0 mg/kg/injection, schedule: Q01DX005 (ip), vehicle: saline) was 0 of 5, the survivor count (dose: 100.0 mg/kg/injection, schedule: Q01DX005 (ip), vehicle: saline with Tween-80) was 0 of 5 and the survivor count (dose: 100.0 mg/kg/injection, schedule: Q01DX005 (ip), vehicle: saline) was 0 of 5. The survivor count (dose: 200.0 mg/kg/injection, schedule: Q01DX005 (ip), vehicle: saline with Tween-80) was 0 of 5 and the survivor count [9] was 0 of 5.

In the case of `COc1cccc2c1C(=O)c1c(O)c3c(c(O)c1C2=O)C[C@H](O)C[C@@H]3OC1CC(N)C(O)C(C)O1` (stereo partly specified), the T/C (dose: 9.4 mg/kg/injection, schedule: Q04DX003 (ip), vehicle: water) is reported as 133 % of control, the T/C (dose: 16.0 mg/kg/injection, schedule: Q04DX003 (ip), vehicle: saline) is reported as 145 % of control and the T/C (dose: 18.8 mg/kg/injection, schedule: Q04DX003 (ip), vehicle: water) is reported as 145 % of control. The survivor count (dose: 25.0 mg/kg/injection, schedule: Q01DX009 (ip), vehicle: water) was 6 of 6, the T/C (dose: 32.0 mg/kg/injection, schedule: Q04DX003 (ip), vehicle: saline) was 145 % of control and the T/C (dose: 37.5 mg/kg/injection, schedule: Q04DX003 (ip), vehicle: water) was 136 % of control. For the same compound, the survivor count (dose: 50.0 mg/kg/injection, schedule: Q01DX009 (ip), vehicle: water) was 5 of 6.

In the case of `CN(C)Cc1ccc2ccccc2c1O`, the survivor count [14] is reported as 5 of 6.

In the case of `CCc1ccccc1N1CCN(C(=O)c2cc(OC)c(OC)c(OC)c2)CC1`, the T/C [12] is reported as 132 % of control, the T/C (dose: 150.0 mg/kg/injection, schedule: Q04DX003 (ip), vehicle: saline with Tween-80) is reported as 126 % of control and the survivor count [14] is reported as 6 of 6. For the same compound, the survivor count (dose: 400.0 mg/kg/injection, schedule: Q01DX009 (ip), vehicle: Klucel (hydroxypropylcellulose) (HPC)) was 5 of 6 and the survivor count (dose: 400.0 mg/kg/injection, schedule: Q01DX009 (ip), vehicle: saline) was 6 of 6.

With `CN(C)CCC(=O)c1ccc(Cl)cc1Cl` the survivor count [14] was 3 of 6.

In the case of `O=C1CSC(=S)N1Cc1ccncc1`, the survivor count (dose: 400.0 mg/kg/injection, schedule: Q01DX009 (ip), vehicle: saline with Tween-80) is reported as 2 of 6.
